Assay results from publication PMC5007378.
No constants are given. Whether binding was seen depends on the method and setting. In cells and extracts the contact can be indirect. Some binding calls cover weakened binding; strength is not graded here.

By UniProt entry, the sequences of proteins in these tests, tags left out.
UniProt P11388: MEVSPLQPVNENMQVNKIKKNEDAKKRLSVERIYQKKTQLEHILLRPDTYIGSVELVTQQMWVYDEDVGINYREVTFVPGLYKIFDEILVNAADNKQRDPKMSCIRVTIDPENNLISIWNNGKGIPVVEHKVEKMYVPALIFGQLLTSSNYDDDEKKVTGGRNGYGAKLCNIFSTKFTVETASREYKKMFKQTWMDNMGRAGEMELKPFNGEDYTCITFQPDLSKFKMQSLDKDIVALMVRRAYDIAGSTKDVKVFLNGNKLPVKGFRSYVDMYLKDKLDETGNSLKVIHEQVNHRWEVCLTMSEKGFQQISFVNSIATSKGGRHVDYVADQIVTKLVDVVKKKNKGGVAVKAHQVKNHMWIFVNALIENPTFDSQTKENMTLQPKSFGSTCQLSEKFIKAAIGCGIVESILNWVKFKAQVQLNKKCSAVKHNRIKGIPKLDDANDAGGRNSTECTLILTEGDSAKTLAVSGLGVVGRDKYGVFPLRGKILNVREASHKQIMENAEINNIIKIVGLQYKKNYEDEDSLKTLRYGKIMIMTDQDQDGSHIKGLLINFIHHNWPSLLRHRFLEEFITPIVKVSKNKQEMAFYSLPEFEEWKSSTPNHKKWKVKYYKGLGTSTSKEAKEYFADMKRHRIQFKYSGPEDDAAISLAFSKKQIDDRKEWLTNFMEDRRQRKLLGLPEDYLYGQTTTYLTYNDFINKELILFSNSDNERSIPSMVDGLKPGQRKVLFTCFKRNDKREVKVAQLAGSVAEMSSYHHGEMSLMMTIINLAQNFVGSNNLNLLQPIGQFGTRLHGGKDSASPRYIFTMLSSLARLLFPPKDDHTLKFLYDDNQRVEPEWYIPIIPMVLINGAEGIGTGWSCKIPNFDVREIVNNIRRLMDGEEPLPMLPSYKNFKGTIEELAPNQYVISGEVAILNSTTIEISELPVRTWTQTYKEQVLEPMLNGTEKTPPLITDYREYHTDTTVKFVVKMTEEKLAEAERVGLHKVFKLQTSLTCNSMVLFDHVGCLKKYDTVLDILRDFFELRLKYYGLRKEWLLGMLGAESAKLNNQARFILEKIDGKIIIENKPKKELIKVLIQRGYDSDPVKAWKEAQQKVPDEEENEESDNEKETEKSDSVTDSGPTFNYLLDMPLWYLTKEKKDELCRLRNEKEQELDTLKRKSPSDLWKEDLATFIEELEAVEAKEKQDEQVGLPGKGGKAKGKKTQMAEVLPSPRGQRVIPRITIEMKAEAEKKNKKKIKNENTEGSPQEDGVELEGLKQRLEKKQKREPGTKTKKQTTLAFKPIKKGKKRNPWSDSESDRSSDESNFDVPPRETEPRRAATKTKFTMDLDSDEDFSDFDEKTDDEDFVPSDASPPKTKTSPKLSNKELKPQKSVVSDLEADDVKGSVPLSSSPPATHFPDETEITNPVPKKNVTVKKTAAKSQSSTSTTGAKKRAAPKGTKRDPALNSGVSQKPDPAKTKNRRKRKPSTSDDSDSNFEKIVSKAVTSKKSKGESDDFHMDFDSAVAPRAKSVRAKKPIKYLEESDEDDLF
UniProt Q80XJ2: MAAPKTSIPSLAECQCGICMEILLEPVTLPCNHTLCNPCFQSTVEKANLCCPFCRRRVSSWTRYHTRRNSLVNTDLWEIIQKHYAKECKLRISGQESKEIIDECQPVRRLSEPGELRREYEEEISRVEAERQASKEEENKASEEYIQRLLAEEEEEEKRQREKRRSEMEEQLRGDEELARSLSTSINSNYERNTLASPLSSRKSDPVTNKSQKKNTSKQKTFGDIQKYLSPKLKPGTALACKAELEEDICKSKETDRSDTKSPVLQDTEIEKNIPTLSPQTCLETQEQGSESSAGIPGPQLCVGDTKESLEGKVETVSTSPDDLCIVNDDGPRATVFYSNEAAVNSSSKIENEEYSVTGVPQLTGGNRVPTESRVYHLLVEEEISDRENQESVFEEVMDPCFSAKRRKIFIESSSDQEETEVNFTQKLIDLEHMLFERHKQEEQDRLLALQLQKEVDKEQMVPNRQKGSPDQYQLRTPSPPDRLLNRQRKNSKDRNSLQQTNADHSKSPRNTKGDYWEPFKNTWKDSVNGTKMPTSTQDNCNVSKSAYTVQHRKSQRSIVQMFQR
UniProt Q8IYW5: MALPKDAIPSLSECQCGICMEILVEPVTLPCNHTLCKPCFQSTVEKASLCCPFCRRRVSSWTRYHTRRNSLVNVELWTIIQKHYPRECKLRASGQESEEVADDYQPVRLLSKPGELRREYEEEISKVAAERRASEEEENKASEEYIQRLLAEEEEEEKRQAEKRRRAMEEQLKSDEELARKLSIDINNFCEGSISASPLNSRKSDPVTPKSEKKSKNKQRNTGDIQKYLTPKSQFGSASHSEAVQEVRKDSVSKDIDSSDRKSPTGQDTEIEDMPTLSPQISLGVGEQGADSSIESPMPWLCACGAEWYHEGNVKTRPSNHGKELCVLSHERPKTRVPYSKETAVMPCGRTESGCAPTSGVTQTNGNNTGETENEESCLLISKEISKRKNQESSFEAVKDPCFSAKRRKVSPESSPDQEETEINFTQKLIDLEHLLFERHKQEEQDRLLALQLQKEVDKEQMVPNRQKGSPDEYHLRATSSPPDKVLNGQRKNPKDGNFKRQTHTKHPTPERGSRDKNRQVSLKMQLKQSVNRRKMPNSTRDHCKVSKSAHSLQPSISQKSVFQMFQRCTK

Legend:
Flag-tagged TOP2α = Flag-tagged TOP2α (UniProt P11388); assay: co-IP; HEK293T co-transfected with Flag- and HA-tagged proteins, harvested 48 h later; lysis in 50 mM Tris-HCl pH 7.5, 150 mM NaCl, 0.5% Triton-X100; IP with anti-Flag (Fig. 7a,b: anti-Flag and anti-HA), immunoblot
[1] = target: endogenous TOP2α (HEK293T cells) (human (endogenous in HEK293T)) (UniProt P11388); assay: co-IP; endogenous proteins; TOP2α, RNF168 and control IgG immunoprecipitates from HEK293T cells, immunoblot

Row | Substance | binding (Flag-tagged TOP2α) | binding [1]
1 | HA-tagged RNF168 (from UniProt Q80XJ2 1-565) | binds | 
2 | endogenous RNF168 (HEK293T cells) (from UniProt Q8IYW5 1-571) |  | binds
